In article PMC11220795 (Molecular Pharmaceutics, 2024):

Test: Drug solubility in medium-chain triglycerides (MCT, Miglyol 812 N); SORESOS 96-well assay, miniaturized shake-flask or literature
Conditions: decadic logarithm of molar solubility in MCTs (Miglyol 812 N), 24 h at room temperature; no literature source given
Description: The excipient complies with the quality specifications of the European Pharmacopoeia. The solvents used for the ultra-performance liquid chromatography (UPLC) quantification were of UPLC grade.
(b) employing a miniaturized version of the shake-flask method in 2 mL glass vials,[33] or (c) collecting data from the literature.[12],[34] Each of the employed assays involved residual solid-state screenings by powder X-ray diffraction to identify potential solid-state changes during solubility screenings.

log10 S [M]: -1.11 M
Compound: COc1cc2c(cc1OC)C(=O)C(CC1CCN(Cc3ccccc3)CC1)C2 (stereo not shown) [donepezil]
